US20230157289A1, “HERBICIDAL PHENYLURACILS” (BASF-SE, priority 2020, published 2023)
Some results were stated once for a whole list of compounds, not compound by compound.

Key:
Type in all cases: in vivo
Conditions in all cases: application rate 125 g/ha, scale from 0 to 100
Echinocloa crus-galli = test: greenhouse pre-emergence herbicidal test, ECHCG
Amaranthus retroflexus = test: greenhouse pre-emergence herbicidal test, AMARE
Abuthilon theophrasti = test: greenhouse pre-emergence herbicidal test, ABUTH
Setaria faberi = test: greenhouse pre-emergence herbicidal test, SETFA

## CCOC(=O)C(OC)Oc1ccccc1Oc1cc(-n2c(=O)cc(C(F)(F)F)n(C)c2=O)c(F)cc1Br (racemic) [example 3, ethyl rac-2-[2-[2-bromo-4-fluoro-5-[3-methyl-2,6-dioxo-4-(trifluoromethyl)pyrimidin-1-yl]phenoxy]phenoxy]-2-methoxy-acetate]
Echinocloa crus-galli
  herbicidal activity: very good herbicidal activity (a very good herbicidal activity is given at values of at least 85)
Amaranthus retroflexus
  herbicidal activity: very good herbicidal activity (a very good herbicidal activity is given at values of at least 85)
Abuthilon theophrasti
  herbicidal activity: very good herbicidal activity (a very good herbicidal activity is given at values of at least 85)
Setaria faberi
  herbicidal activity: very good herbicidal activity (a very good herbicidal activity is given at values of at least 85)
